Our source for the binding values is paper PMC5150223.

Sequences of proteins named here, by UniProt entry; tags and fusion partners are left off. Residues count along the entry.
UniProt P17181, residues 28-557: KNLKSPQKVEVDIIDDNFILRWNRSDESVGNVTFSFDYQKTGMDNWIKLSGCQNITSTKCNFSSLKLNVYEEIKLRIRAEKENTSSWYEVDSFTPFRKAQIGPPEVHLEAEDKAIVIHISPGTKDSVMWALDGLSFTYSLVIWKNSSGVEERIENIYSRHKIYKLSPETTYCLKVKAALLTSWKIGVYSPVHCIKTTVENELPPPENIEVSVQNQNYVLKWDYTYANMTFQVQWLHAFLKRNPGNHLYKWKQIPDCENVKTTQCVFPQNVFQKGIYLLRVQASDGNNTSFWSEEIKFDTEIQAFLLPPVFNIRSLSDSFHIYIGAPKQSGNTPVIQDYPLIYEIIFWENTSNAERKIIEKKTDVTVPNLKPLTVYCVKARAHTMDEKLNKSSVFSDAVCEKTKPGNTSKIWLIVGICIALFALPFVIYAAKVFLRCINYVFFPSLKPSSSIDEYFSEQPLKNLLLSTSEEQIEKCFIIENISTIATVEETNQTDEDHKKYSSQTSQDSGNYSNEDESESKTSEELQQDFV

Results are given in words; binding and its absence hold for the method and conditions named. In cells and extracts the contact can be indirect. Some entries that bind do so weakly or less than the wild type.

The target of the assay is T1, type-I interferon (IFN-α/β) receptor subunit IFNAR2 (human (endogenous in RPE1)) (UniProt P48551).
T1 sequence: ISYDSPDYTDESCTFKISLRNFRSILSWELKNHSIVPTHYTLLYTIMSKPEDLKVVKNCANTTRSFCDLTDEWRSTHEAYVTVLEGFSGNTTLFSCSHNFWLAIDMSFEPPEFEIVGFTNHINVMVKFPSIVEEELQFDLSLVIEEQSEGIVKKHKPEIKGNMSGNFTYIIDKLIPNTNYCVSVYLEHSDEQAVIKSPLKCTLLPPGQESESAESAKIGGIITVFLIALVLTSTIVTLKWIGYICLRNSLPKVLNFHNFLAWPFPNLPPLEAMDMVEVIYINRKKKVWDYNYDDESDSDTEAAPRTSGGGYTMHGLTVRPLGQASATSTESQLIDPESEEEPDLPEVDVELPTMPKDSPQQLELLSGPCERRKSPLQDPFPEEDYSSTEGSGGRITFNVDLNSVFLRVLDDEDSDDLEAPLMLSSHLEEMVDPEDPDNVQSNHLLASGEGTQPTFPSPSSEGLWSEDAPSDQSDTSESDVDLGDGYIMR
As to the kind of experiment: proximity ligation; in situ PLA in RPE1 cells; anti-IFNAR1 or anti-IFNAR2 antibody bound on ice, IFN-α at 37 °C for the indicated times, cells fixed and permeabilised; control and VPS35-depleted cells.

As to “type-I interferon (IFN-α/β) receptor subunit IFNAR1 (from UniProt P17181 28-557)”, the binding entry was “binds”.
